Data on 25 compounds can be found in the supplement of paper PMC10735217.

For the assay, the system named is HEK293A TEAD-LUC reporter. Put plainly: TEAD-luciferase reporter activity (YAP activation), robust Z score vs plate; higher = stronger YAP/TEAD activation. The conditions noted are these: 24 h. On the technique in general: In a reporter assay the amount or activity of a reporter protein is the signal.

The other results are listed elsewhere or left out. This data set is noisy: repeats of one test often differ as much as different tests do.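 In a drug-repurposing library screen, luminescence reads luciferase driven by eight TEAD-binding elements, stably integrated into human kidney-derived cells. Compounds scoring over five robust Z scores above the plate mean are called hits.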

For the compound `OCC(O)C(O)C(O)C(O)COC1OC(CO)C(O)C(O)C1O` (stereo not given), the TEAD-luciferase reporter activity by setting is: (compound concentration: 200 nM) inactive: -0.0761; (compound concentration: 2 uM) inactive: -0.288; (compound concentration: 10 uM) active: 8.07.

For `OC(CN1CCN(C(c2ccccc2)c2ccccc2)CC1)c1ccccc1` (stereo not given), the TEAD-luciferase reporter activity is, setting by setting: (compound concentration: 200 nM) active: 5.91; (compound concentration: 2 uM) inactive: -0.106; (compound concentration: 10 uM) inactive: -1.13.

Take `CN1CCCC(N2NC(=Cc3ccc(Cl)cc3)c3ccccc3C2=O)CC1` (stereo not given): the TEAD-luciferase reporter activity runs as follows: (compound concentration: 200 nM) inactive: -0.73; (compound concentration: 2 uM) inactive: -0.825; (compound concentration: 10 uM) inactive: -0.502.

As for `CCCCc1nc(Cl)c(C(=O)O)n1Cc1ccc(-c2ccccc2-c2nnn[nH]2)cc1` [Carboxylosartan], the TEAD-luciferase reporter activity is inactive: -0.365 (compound concentration: 200 nM), inactive: -1.86 (compound concentration: 2 uM) and inactive: -0.181 (compound concentration: 10 uM).

`CCCC(CCC)C(=O)O[C@H]1C[C@H]2CC[C@@H](C1)[N+]2(C)C` [Octatropine methylbromide]: the TEAD-luciferase reporter activity is inactive: -0.905 (compound concentration: 200 nM), inactive: 2.44 (compound concentration: 2 uM) and inactive: -1.85 (compound concentration: 10 uM).

Turning to `NS(=O)(=O)c1cccc(CCCCOCCCCCCNCC(O)c2ccc(O)c(CO)c2)c1` (stereo not given), the TEAD-luciferase reporter activity reads like this: (compound concentration: 200 nM) inactive: -0.217; (compound concentration: 2 uM) inactive: -0.213; (compound concentration: 10 uM) inactive: -1.24.

As to `COc1ccc2cc([C@H](C)C(=O)O)ccc2c1` [Naproxen], the TEAD-luciferase reporter activity (compound concentration: 2 uM) is inactive: -0.487.

For the compound `COc1ccc2cc([C@H](C)C(=O)O)ccc2c1` [Naproxen sodium], the TEAD-luciferase reporter activity is inactive: 0.651 (compound concentration: 200 nM), inactive: 1.34 (compound concentration: 2 uM) and inactive: -1.63 (compound concentration: 10 uM).

`CC/C(C(=O)O)=C(\CC)C(=O)O`: the TEAD-luciferase reporter activity was inactive: -0.129 (compound concentration: 200 nM), inactive: -1 (compound concentration: 2 uM) and inactive: -1.96 (compound concentration: 10 uM).

With `FC(F)(F)c1ccc(Nc2ncnc3cc(-c4ncccc4C(F)(F)F)ccc23)cc1`, the TEAD-luciferase reporter activity is inactive: 0.165 (compound concentration: 200 nM), inactive: -1.74 (compound concentration: 2 uM) and inactive: -1.26 (compound concentration: 10 uM).

Regarding `CC(C)c1cccc(C(C)C)c1NC(=O)NCC1(c2ccc(N3CC=CC3)cc2)O[C@@H](C)[C@@H](C)O1` (stereo not given in full), the TEAD-luciferase reporter activity is, setting by setting: (compound concentration: 200 nM) inactive: -1.13; (compound concentration: 2 uM) inactive: -1.02; (compound concentration: 10 uM) inactive: -0.983.

Take `CC1=C(C(=O)NCCc2ccccc2)SC2=NC(C)(C)CN21`: the TEAD-luciferase reporter activity is, setting by setting: (compound concentration: 200 nM) inactive: -1.52; (compound concentration: 2 uM) inactive: 1.79; (compound concentration: 10 uM) inactive: 2.47.

As for `Nc1ccn([C@@H]2O[C@@](CO)(CCl)[C@@H](O)[C@H]2F)c(=O)n1`, the TEAD-luciferase reporter activity by setting is: (compound concentration: 200 nM) inactive: 0.534; (compound concentration: 2 uM) inactive: -0.672; (compound concentration: 10 uM) inactive: 1.49.

With `Cc1cc([C@@H](C)Nc2ccccc2C(=O)O)c2nc(N3CCOCC3)cc(=O)n2c1`, the TEAD-luciferase reporter activity (compound concentration: 200 nM) is inactive: -0.64, the TEAD-luciferase reporter activity (compound concentration: 2 uM) was inactive: -0.442 and the TEAD-luciferase reporter activity (compound concentration: 10 uM) was inactive: -1.28.

With `CC(=O)Nc1ccc(OC(=O)c2ccccc2OC(C)=O)cc1`, the TEAD-luciferase reporter activity runs as follows: (compound concentration: 200 nM) inactive: 0.747; (compound concentration: 2 uM) inactive: -0.617; (compound concentration: 10 uM) inactive: 0.923.

On to `CN(C)c1ccc(NC(=O)NS(=O)(=O)c2ccc(Cl)cc2)cc1`, for which the TEAD-luciferase reporter activity is inactive: -1.12 (compound concentration: 200 nM), inactive: -0.562 (compound concentration: 2 uM) and inactive: 0.535 (compound concentration: 10 uM).

Take `CN(C)Cc1ccc2c(Cl)cc(Cl)c(O)c2n1`: the TEAD-luciferase reporter activity runs as follows: (compound concentration: 200 nM) inactive: -0.872; (compound concentration: 2 uM) inactive: 2.46; (compound concentration: 10 uM) inactive: 0.326.

Regarding `NCc1ccccc1CC(=O)N[C@@H]1C(=O)N2C(C(=O)O)=C(CSc3nnnn3CC(=O)O)CS[C@H]12` [ceforanide], the TEAD-luciferase reporter activity (compound concentration: 2 uM) was inactive: -2.4.

As for `NCc1ccccc1CC(=O)N[C@@H]1C(=O)N2C(C(=O)O)=C(CSc3nnnn3CC(=O)O)CS[C@H]12` [Ceforanide], the TEAD-luciferase reporter activity runs as follows: (compound concentration: 200 nM) inactive: -3.58; (compound concentration: 10 uM) inactive: -0.477.

On to `Cc1cc(/C(=C\Nc2ccc(Cl)cc2)C(=O)Nc2ccc(Cl)cc2)on1`, for which the TEAD-luciferase reporter activity reads like this: (compound concentration: 200 nM) inactive: 3.32; (compound concentration: 2 uM) inactive: -0.789; (compound concentration: 10 uM) inactive: 2.91.

As for `CN(C)CCOC(c1ccccc1)c1ccccc1C(C)(C)C` (stereo not given), the TEAD-luciferase reporter activity was inactive: -0.909 (compound concentration: 200 nM), inactive: -0.664 (compound concentration: 2 uM) and inactive: 1.09 (compound concentration: 10 uM).

In the case of `CC[C@@H]1C(=O)N(C)c2cnc(Nc3ccc(C(=O)NC4CCN(C)CC4)cc3OC)nc2N1C1CCCC1`, the TEAD-luciferase reporter activity is inactive: -1.4 (compound concentration: 200 nM), active: 5.2 (compound concentration: 2 uM) and active: 6.28 (compound concentration: 10 uM).

With `CN(C)CCC/N=C1\CC(c2ccc(Cl)cc2Cl)Cc2[nH]c3ccc(Cl)cc3c(=O)c21` (stereo not given), the TEAD-luciferase reporter activity is, setting by setting: (compound concentration: 200 nM) inactive: 1.78; (compound concentration: 2 uM) inactive: 0.775; (compound concentration: 10 uM) inactive: -0.522.

For `CN(Cc1c(-c2ccc(Cl)cc2)nc2ccccn12)C(=O)Cc1ccccc1`, the TEAD-luciferase reporter activity by setting is: (compound concentration: 200 nM) inactive: -1.26; (compound concentration: 2 uM) inactive: -0.334; (compound concentration: 10 uM) inactive: -0.947.

For the compound `C[C@H](CCC(=O)N(C)CC(=O)O)[C@H]1CC[C@H]2[C@@H]3[C@H](O)C[C@@H]4C[C@H](O)CCC4(C)[C@H]3C[C@H](O)[C@]12C` (stereo not given in full) [Cholylsarcosine], the TEAD-luciferase reporter activity is inactive: -0.0734 (compound concentration: 200 nM), inactive: -0.0174 (compound concentration: 2 uM) and inactive: 0.903 (compound concentration: 10 uM).
